From publication PMC5562444 come the findings set out here.

Chains of the proteins cited; added tags and fusions are not shown.
UniProt Q9BQ69: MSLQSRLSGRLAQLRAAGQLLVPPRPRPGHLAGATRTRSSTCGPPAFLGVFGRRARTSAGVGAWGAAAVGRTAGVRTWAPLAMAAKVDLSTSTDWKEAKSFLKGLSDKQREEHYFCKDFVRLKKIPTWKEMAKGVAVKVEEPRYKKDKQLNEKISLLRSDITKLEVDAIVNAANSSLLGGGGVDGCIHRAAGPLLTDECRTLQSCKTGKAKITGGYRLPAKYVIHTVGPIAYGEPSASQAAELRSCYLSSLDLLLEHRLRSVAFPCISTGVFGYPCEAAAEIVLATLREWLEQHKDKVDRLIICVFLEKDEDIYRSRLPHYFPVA
UniProt P19525: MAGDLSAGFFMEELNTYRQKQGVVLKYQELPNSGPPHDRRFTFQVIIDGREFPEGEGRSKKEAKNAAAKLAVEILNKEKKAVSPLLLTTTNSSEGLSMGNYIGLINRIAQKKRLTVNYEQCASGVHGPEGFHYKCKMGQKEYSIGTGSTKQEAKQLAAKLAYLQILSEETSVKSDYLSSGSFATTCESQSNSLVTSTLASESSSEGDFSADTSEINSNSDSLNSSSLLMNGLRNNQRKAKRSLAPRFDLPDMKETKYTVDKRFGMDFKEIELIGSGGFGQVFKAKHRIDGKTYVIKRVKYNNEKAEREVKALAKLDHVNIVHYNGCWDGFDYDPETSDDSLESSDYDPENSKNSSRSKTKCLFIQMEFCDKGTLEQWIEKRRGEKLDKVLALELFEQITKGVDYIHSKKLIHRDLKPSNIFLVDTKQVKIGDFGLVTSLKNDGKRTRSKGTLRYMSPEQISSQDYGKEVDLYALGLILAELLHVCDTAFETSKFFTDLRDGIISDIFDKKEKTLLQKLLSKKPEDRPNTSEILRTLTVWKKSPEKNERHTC

Assay [1] addresses GST–LRP16 fusion protein (UniProt Q9BQ69). Kind of assay: pull-down; GST–LRP16 on glutathione agarose / GSH–Sepharose beads incubated with in vitro-translated proteins; retained proteins immunoblotted; only the target purified.
In assay [2] the target is FLAG-tagged LRP16 expressed in SW480 cells (UniProt Q9BQ69). Kind of assay: co-IP; nuclear fractions of SW480 cells expressing FLAG–LRP16, etoposide (50 μM) for the indicated periods.
Assay [3] deals with Leukemia-Related Protein 16 (LRP16), endogenous (human (endogenous in SW480, SW620, HCT116)) (UniProt Q9BQ69). Kind of assay: co-IP; nuclear fractions of SW620 cells treated with etoposide (50 μM) for the indicated periods, endogenous proteins.
Assay [4] shares this target. In words: co-IP; cytosolic fractions of SW620 cells treated with etoposide (50 μM) for the indicated periods, endogenous proteins.
Assay [5] has the same target. Kind of assay: co-IP; endogenous proteins, HCT116+/+ or HCT116−/− (TP53-null) cells treated with etoposide (50 μM) for the indicated periods.
Assay [6] concerns the target FLAG-tagged LRP16 expressed in SW480 cells (UniProt Q9BQ69). In words: co-IP; cytosolic fractions of SW480 cells expressing FLAG–LRP16 (or control vector), etoposide (50 μM) for the indicated periods.
The target in assay [7] is Leukemia-Related Protein 16 (LRP16), endogenous (human (endogenous in SW480, SW620, HCT116)) (UniProt Q9BQ69). Kind of assay: co-IP; endogenous proteins, SW480 cell lysates, etoposide for the indicated periods; with or without ethidium bromide in the lysate; anti-LRP16 IP in Figure 6—figure supplement 1E (no MRS2578).
Assay [8] concerns the target double-stranded RNA-dependent protein kinase PKR, endogenous (human (endogenous in SW480, SW620, HCT116)) (UniProt P19525). Kind of assay: co-IP; cytosolic fractions of SW480 cells expressing FLAG–LRP16 (or control vector), etoposide (50 μM) for the indicated periods.
Assay [9] has as its target Leukemia-Related Protein 16 (LRP16), endogenous (human (endogenous in SW480, SW620, HCT116)) (UniProt Q9BQ69). Kind of assay: co-IP; endogenous proteins, SW480 cell lysates, etoposide for the indicated periods; with or without ethidium bromide in the lysate; anti-LRP16 IP in Figure 6—figure supplement 1E (no MRS2578). This is another data set of the same source.
Assay [10] shares this target. Kind of assay: co-IP; endogenous proteins, SW620 cell lysates, cells transfected with control, LRP16 or PKR siRNAs, with or without etoposide; IP with anti-PKR (Figure 4I) or anti-LRP16 (Figure 5—figure supplement 1D).
The target in assay [11] is double-stranded RNA-dependent protein kinase PKR, endogenous (human (endogenous in SW480, SW620, HCT116)) (UniProt P19525). Described as above.

Results are given in words; binding and its absence hold for the method and conditions named. Binding seen in cells or lysates may run through a third protein. Some results given as binding are weak or reduced against the parent protein; the word gives no strength.

For “in vitro-translated FLAG–PKR (wild type, full-length) (from UniProt P19525 1-551)”, the binding result in assay [1] is reported as “binds”.
Turning to “double-stranded RNA-dependent protein kinase PKR, endogenous (from UniProt P19525 1-551)”, the binding result in assay [2] is recorded as “binds weakly”; in assay [3], “binds weakly”; in [4], “binds”; in [5], “binds”; in assay [6], “binds”; in assay [7], “binds”.

B1: in vitro-translated IKKβ (protein, UniProt O14920 1-756)
chain: MSWSPSLTTQTCGAWEMKERLGTGGFGNVIRWHNQETGEQIAIKQCRQELSPRNRERWCLEIQIMRRLTHPNVVAARDVPEGMQNLAPNDLPLLAMEYCQGGDLRKYLNQFENCCGLREGAILTLLSDIASALRYLHENRIIHRDLKPENIVLQQGEQRLIHKIIDLGYAKELDQGSLCTSFVGTLQYLAPELLEQQKYTVTVDYWSFGTLAFECITGFRPFLPNWQPVQWHSKVRQKSEVDIVVSEDLNGTVKFSSSLPYPNNLNSVLAERLEKWLQLMLMWHPRQRGTDPTYGPNGCFKALDDILNLKLVHILNMVTGTIHTYPVTEDESLQSLKARIQQDTGIPEEDQELLQEAGLALIPDKPATQCISDGKLNEGHTLDMDLVFLFDNSKITYETQISPRPQPESVSCILQEPKRNLAFFQLRKVWGQVWHSIQTLKEDCNRLQQGQRAAMMNLLRNNSCLSKMKNSMASMSQQLKAKLDFFKTSIQIDLEKYSEQTEFGITSDKLLLAWREMEQAVELCGRENEVKLLVERMMALQTDIVDLQRSPMGRKQGGTLDDLEEQARELYRRLREKPRDQRTEGDSQEMVRLLLQAIQSFEKKVRVIYTQLSKTVVCKQKALELLPKVEEVVSLMNEDEKTVVRLQEKRQKELWNLLKIACSKVRGPVSGSPDSMNASRLSQPGQLMSQPSTASNSLPEPAKKSEELVAEAHNLCTLLENAIQDTVREQDQSFTALDWSWLQTEEEEHSCLEQAS
Turning to B1, in [1], the binding entry was “binds”.

B2: IKKβ, endogenous (protein, UniProt O14920 1-756)
chain: B1 chain
On to B2, for which the binding result is reported as “binds weakly” in assay [2]; “binds weakly” in assay [3]; “binds” in assay [4]; “binds” in [6]; “binds” in [8]; “binds” in [9]. For the same molecule, the binding result in [10] and in assay [11] was “binds” each time.
